According to article doi:10.1101/376103:
Results are given in words; binding and its absence hold for the method and conditions named. In cells and extracts the contact can be indirect. Binding can be weak; no strength is given.

Chains of the proteins cited; added tags and fusions are not shown. Lines headed by an entry give the natural chain unless they say otherwise; changes in a name come on top.
UniProt P63330: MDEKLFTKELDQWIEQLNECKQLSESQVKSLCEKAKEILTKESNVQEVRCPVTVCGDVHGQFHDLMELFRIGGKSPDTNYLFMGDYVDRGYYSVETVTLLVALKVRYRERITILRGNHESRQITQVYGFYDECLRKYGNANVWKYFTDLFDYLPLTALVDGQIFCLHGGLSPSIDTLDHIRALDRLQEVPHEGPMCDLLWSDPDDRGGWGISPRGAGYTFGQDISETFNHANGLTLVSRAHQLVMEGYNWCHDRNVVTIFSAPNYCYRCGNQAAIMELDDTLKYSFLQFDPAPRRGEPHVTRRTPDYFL
UniProt Q04207: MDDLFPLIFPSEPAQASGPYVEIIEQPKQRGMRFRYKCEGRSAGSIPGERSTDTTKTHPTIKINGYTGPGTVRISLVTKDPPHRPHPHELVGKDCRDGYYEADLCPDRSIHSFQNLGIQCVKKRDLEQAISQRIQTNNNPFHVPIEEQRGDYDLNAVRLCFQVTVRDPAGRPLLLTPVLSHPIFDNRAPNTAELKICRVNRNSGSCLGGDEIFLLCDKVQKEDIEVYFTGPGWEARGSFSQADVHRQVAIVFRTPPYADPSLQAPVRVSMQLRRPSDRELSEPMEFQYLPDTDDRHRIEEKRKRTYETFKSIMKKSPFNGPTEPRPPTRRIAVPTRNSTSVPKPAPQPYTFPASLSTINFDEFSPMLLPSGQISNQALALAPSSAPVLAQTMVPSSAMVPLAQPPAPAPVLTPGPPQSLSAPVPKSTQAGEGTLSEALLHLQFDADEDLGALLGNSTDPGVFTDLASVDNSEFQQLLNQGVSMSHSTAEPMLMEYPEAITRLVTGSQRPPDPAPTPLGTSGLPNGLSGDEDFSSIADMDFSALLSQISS

Target: endogenous PP2A (mouse (endogenous in MEFs, GMDCs, BMDMs)) (UniProt P63330)
Assay: co-IP

- binding: binds
Substance: endogenous p65 (from UniProt Q04207 1-549)
